In patent US7342033B2, “Use of riluzole for the treatment of multiple sclerosis” (Vereniging Voor Christelijk Wetenschappelijk Onderwijs, priority 1999, dated 2008):

Tested on: multiple sclerosis patients
[1] = brain MRI, second year, riluzole 2×50 mg daily
[2] = untreated year versus riluzole year

Q: Which “Increase in T1 lesion load, Δ 1-2 yr, mean” value [1] does the source give for `Nc1nc2ccc(OC(F)(F)F)cc2s1` [riluzole, (6-trifluoromethoxy)-2-benzothiazolamine)] here?
A: Its value is “mean 24%”.

Q: And the “Increase in T1 lesion load, Δ 1-2 yr, median” value [1]?
A: The value was “median 6%”.

Q: And the “Increase in T2 lesion load, Δ 1-2 yr, mean” value [1]?
A: The value was “mean 12%”.

Q: And the “Increase in T2 lesion load, Δ 1-2 yr, median” value [1]?
A: Its value is “median: 10%”.

Q: What about the “Effect on EDSS score” value (riluzole 2×50 mg daily, one year) of the same compound?
A: The value was “No effect”.

Q: What about the “Increase in T2 lesion load in the brain under treatment (in words)” value (riluzole year compared with untreated year) of the same compound?
A: The value was “did not alter much”.

Q: What about the “Accumulation of hypointense (T1) lesion under treatment (in words)” value (riluzole year compared with untreated year, p=0.66) of the same compound?
A: Its value is “trend towards reduction”.

Q: And the “Change in spinal cord area, Δ 1-2 yr (percent)” value (second year, riluzole 2×50 mg daily)?
A: The value was −0.15%.

Q: And the “Change in spinal cord area, Δ 1-2 yr” value (second year, riluzole 2×50 mg daily, mean, baseline 66.7 mm^2)?
A: The value was −0.2 mm^2.

Q: What about the “Spinal cord area, difference Δ 0-1 yr versus Δ 1-2 yr” value [2] of the same compound?
A: The value was −1.5 mm^2.

Q: What about the “Spinal cord area, difference Δ 0-1 yr versus Δ 1-2 yr (percent)” value [2] of the same compound?
A: The value was −2.15%.

Q: What about the “T1 lesion load, difference Δ 0-1 yr versus Δ 1-2 yr, mean” value [2] of the same compound?
A: The value was “mean 53%”.

Q: What about the “T1 lesion load, difference Δ 0-1 yr versus Δ 1-2 yr, median” value [2] of the same compound?
A: The value was “median 24%”.

Q: And the “T2 lesion load, difference Δ 0-1 yr versus Δ 1-2 yr, mean” value [2]?
A: The value was “mean 28%”.

Q: What about the “T2 lesion load, difference Δ 0-1 yr versus Δ 1-2 yr, median” value [2] of the same compound?
A: The value was “median 21.6%”.
